{"source": "patent EP0616804A1", "about": "(priority 1993, dated 1994)", "origin": "cited, not measured here", "conditions": "rat, in vivo, cited from earlier work", "note": "Read-outs that look alike come from different tables or passages of the source.", "data": [{"smiles": "CN1C(=O)CN=C(c2ccccc2)c2cc(Cl)ccc21", "note": "[Diazepam]", "values": [{"measurement": "LD₅₀", "setting": "ip", "result": 300, "unit": "mg/kg"}, {"measurement": "LD₅₀", "setting": "po", "result": 352, "unit": "mg/kg"}]}]}
